Data on 15 compounds can be found in PubChem BioAssay AID248 (DTP/NCI, 2004).

Molecules are shown by their SMILES. The list does not hold the whole screen: it is rich in T/C values a quarter to a half above the control, in often repeated tests (any T/C) and in doses without a T/C. Other doses and runs of a compound stand elsewhere. T/C is the treated group as % of the vehicle group. Some entries give survivors of the animals treated and no T/C: the source holds a T/C of zero for them, seemingly a mark for toxic or unscored doses. Some doses without a T/C left all or most animals alive at the check, yet need not have been tolerated: the source hardly ever lists a survival T/C far under the control, and the zero likely stands for such cases as well. Survivors were counted at the toxicity check, usually on the fifth day, unless a day is given; later deaths do not show. Schedules are NCI's codes, taken here to give the interval after Q, in days (D) or hours (H), and the number of doses after X. Some schedules carry Z or #; the key to these is not given. Some structures stand for samples that the source files as different forms (salt, stereo form or complex); doses refer to the form tested. Some entries were tested several times; the values are given in rising order. Where survival is the endpoint, the PubChem record calls one and a half times the control and up active, and a quarter to a half above the control has no call in these data; cut-offs in other NCI protocols can differ. Some T/C values are followed by the survivors on the day toxicity was checked, most often the fifth; without a count, all were alive then.

For the experiment, the system named is L1210 leukemia ip in BDF1 mice, survival T/C. Kind of experiment: NCI In Vivo Anticancer Drug Screen. Data for tumor model L1210 Leukemia (intraperitoneal) in B6D2F1 (BDF1) mice. Conditions: higher T/C = longer survival.
[1] abbreviates: T/C endpoint: mean survival time, dose: 200.0 mg/kg/injection, schedule: Q04DX003 (ip), vehicle: Klucel (hydroxypropylcellulose) (HPC).
Where [2] appears, read: T/C endpoint: mean survival time, dose: 400.0 mg/kg/injection, schedule: Q04DX003 (ip), vehicle: Klucel (hydroxypropylcellulose) (HPC).
Where [3] appears, read: T/C endpoint: mean survival time, dose: 100.0 mg/kg/injection, schedule: Q01DX001 (ip), vehicle: saline.
Setting [4] is: T/C endpoint: mean survival time, dose: 400.0 mg/kg/injection, schedule: Q01DX001 (ip), vehicle: saline.
The mark [5] stands for this setting: T/C endpoint: mean survival time, dose: 200.0 mg/kg/injection, schedule: Q04DX003 (ip), vehicle: saline with Tween-80.

Consider `CC1(C)C2CCC1(C)C(OCCCN=C(N)CSS(=O)(=O)O)C2` (stereo not drawn), for which the survivor count is 3 of 3 (T/C endpoint: mean survival time, dose: 12.0 mg/kg/injection, schedule: Q04DX002 (ip), vehicle: Klucel (hydroxypropylcellulose) (HPC)); 1 of 3 (T/C endpoint: mean survival time, dose: 25.0 mg/kg/injection, schedule: Q04DX002 (ip), vehicle: Klucel (hydroxypropylcellulose) (HPC)); 0 of 3 (T/C endpoint: mean survival time, dose: 50.0 mg/kg/injection, schedule: Q04DX002 (ip), vehicle: Klucel (hydroxypropylcellulose) (HPC)); 0 of 3 (T/C endpoint: mean survival time, dose: 100.0 mg/kg/injection, schedule: Q04DX002 (ip), vehicle: Klucel (hydroxypropylcellulose) (HPC)).

As to `CC(=O)c1sccc1C`, the survivor count was 3 of 6 (T/C endpoint: mean survival time, dose: 50.0 mg/kg/injection, schedule: Q04DX003 (ip), vehicle: Klucel (hydroxypropylcellulose) (HPC)); 0 of 6 (T/C endpoint: mean survival time, dose: 100.0 mg/kg/injection, schedule: Q04DX003 (ip), vehicle: Klucel (hydroxypropylcellulose) (HPC)); 0 of 6 under setting [1]; 0 of 6 under setting [2].

As to `COC(=O)c1cc([N+](=O)[O-])c(Cl)c([N+](=O)[O-])c1`, the survivor count reads like this: (T/C endpoint: mean survival time, dose: 50.0 mg/kg/injection, schedule: Q01DX009 (ip), vehicle: Klucel (hydroxypropylcellulose) (HPC)) 0 of 6; (T/C endpoint: mean survival time, dose: 100.0 mg/kg/injection, schedule: Q01DX009 (ip), vehicle: Klucel (hydroxypropylcellulose) (HPC)) 0 of 6; under setting [1], 6 of 6; under setting [2], 2 of 6.

As for `O=C(CCl)c1c(O)[n+](Cc2ccccc2)c2ccccn12`, the survivor count under setting [3] was 0 of 6; the survivor count (T/C endpoint: mean survival time, dose: 200.0 mg/kg/injection, schedule: Q01DX001 (ip), vehicle: saline) is recorded as 1 of 6; the survivor count under setting [4] was 0 of 6.

Take `CC/C(=C(/CC)c1ccc(O)cc1)c1ccc(O)cc1`: the survivor count (T/C endpoint: mean survival time, dose: 400.0 mg/kg/injection, schedule: Q01DX009 (ip), vehicle: carboxymethylcellulose (CMC)) was 9 of 10; the survivor count (T/C endpoint: median survival time, dose: 128.0 mg/kg/injection, schedule: Q03HX008 (ip), vehicle: saline with Tween-80) is on record as 0 of 10; the survivor count (T/C endpoint: median survival time, dose: 128.0 mg/kg/injection, schedule: Q03HX016 (ip), vehicle: saline with Tween-80) was 0 of 10; the survivor count (T/C endpoint: median survival time, dose: 128.0 mg/kg/injection, schedule: Q03HX024 (ip), vehicle: saline with Tween-80) was 0 of 10; the survivor count (T/C endpoint: median survival time, dose: 256.0 mg/kg/injection, schedule: Q01DX009 (ip), vehicle: saline with Tween-80) is on record as 7 of 10; the survivor count (T/C endpoint: median survival time, dose: 256.0 mg/kg/injection, schedule: Q03HX008 (ip), vehicle: saline with Tween-80) is reported as 0 of 10. For the same compound, the survivor count reads like this: (T/C endpoint: median survival time, dose: 256.0 mg/kg/injection, schedule: Q03HX016 (ip), vehicle: saline with Tween-80) 0 of 10; (T/C endpoint: median survival time, dose: 512.0 mg/kg/injection, schedule: Q01DX009 (ip), vehicle: saline with Tween-80) 0 of 10; (T/C endpoint: median survival time, dose: 512.0 mg/kg/injection, schedule: Q04DX003 (ip), vehicle: saline with Tween-80) 3 of 10; (T/C endpoint: median survival time, dose: 1024.0 mg/kg/injection, schedule: Q01DX001 (ip), vehicle: saline with Tween-80) 2 of 10; (T/C endpoint: median survival time, dose: 1024.0 mg/kg/injection, schedule: Q04DX003 (ip), vehicle: saline with Tween-80) 5 of 10; (T/C endpoint: median survival time, dose: 2048.0 mg/kg/injection, schedule: Q01DX001 (ip), vehicle: saline with Tween-80) 1 of 10.

For `Fc1nc2nc(C(F)(F)F)[nH]c2nc1F`, the survivor count (T/C endpoint: mean survival time, dose: 200.0 mg/kg/injection, schedule: Q01DX009 (ip), vehicle: saline) was 4 of 6 and the survivor count (T/C endpoint: mean survival time, dose: 400.0 mg/kg/injection, schedule: Q01DX009 (ip), vehicle: saline) is listed as 0 of 6.

In the case of `CC1COCC(C)N1CC(=O)NCCCN1CCN(CCCNC(=O)CN2C(C)COCC2C)CC1` (stereo not drawn), the T/C under setting [3] was 128 % of control. Besides, under setting [4], the survivor count was 0 of 4.

`C/C(=N\N=C(N)N)c1cccs1`: the survivor count runs as follows: (T/C endpoint: mean survival time, dose: 30.0 mg/kg/injection, schedule: Q01DX Z (oral), vehicle: carboxymethylcellulose (CMC)) 3 of 6; (T/C endpoint: mean survival time, dose: 60.0 mg/kg/injection, schedule: Q01DX Z (oral), vehicle: carboxymethylcellulose (CMC)) 0 of 6.

Consider `CCC(=O)OCC1OC(n2cnc3c(=S)nc(N)[nH]c32)C(OC(=O)CC)C1OC(=O)CC` (stereo not drawn), for which the T/C was 126 and 133 % of control (T/C endpoint: mean survival time, dose: 2.0 mg/kg/injection, schedule: Q01DX Z (ip), vehicle: carboxymethylcellulose (CMC)); 137, 140, 146 % of control (T/C endpoint: mean survival time, dose: 5.0 mg/kg/injection, schedule: Q01DX Z (ip), vehicle: carboxymethylcellulose (CMC)); 128 and 136 % of control (T/C endpoint: mean survival time, dose: 8.0 mg/kg/injection, schedule: Q01DX Z (ip), vehicle: carboxymethylcellulose (CMC)); 146 % of control [5 of 6 alive] (T/C endpoint: mean survival time, dose: 18.0 mg/kg/injection, schedule: Q01DX Z (ip), vehicle: carboxymethylcellulose (CMC)).

For the compound `CCN(CC)Cc1cc(Nc2cc(C)nc(/N=C(\N)Nc3cc(Cl)cc(Cl)c3)n2)ccc1O`, the survivor count by setting is: under setting [5], 5 of 6; (T/C endpoint: mean survival time, dose: 400.0 mg/kg/injection, schedule: Q04DX003 (ip), vehicle: saline with Tween-80) 3 of 6.

Regarding `Cc1cccc(OS(=O)(=O)c2ccccc2[N+](=O)[O-])c1`, the survivor count (T/C endpoint: mean survival time, dose: 200.0 mg/kg/injection, schedule: Q01DX009 (ip), vehicle: saline sonified) is recorded as 6 of 6.

In the case of `C[N+](C)(C)C1CCCCC1`, the survivor count (T/C endpoint: mean survival time, dose: 300.0 mg/kg/injection, schedule: Q01DX001 (ip), vehicle: saline) was 0 of 6 and 1 of 6.

For `CCCCCCCCCCCCCC[n+]1ccccc1`, the survivor count reads like this: (T/C endpoint: mean survival time, dose: 4.0 mg/kg/injection, schedule: Q01DX001 (ip), vehicle: saline) 0 of 6; (T/C endpoint: mean survival time, dose: 5.0 mg/kg/injection, schedule: Q01DX001 (ip), vehicle: saline) 0 of 6; (T/C endpoint: mean survival time, dose: 8.0 mg/kg/injection, schedule: Q01DX001 (ip), vehicle: saline) 3 of 6; (T/C endpoint: mean survival time, dose: 10.0 mg/kg/injection, schedule: Q01DX001 (ip), vehicle: saline) 3 of 6; (T/C endpoint: mean survival time, dose: 20.0 mg/kg/injection, schedule: Q01DX001 (ip), vehicle: saline) 3 of 6; (T/C endpoint: mean survival time, dose: 40.0 mg/kg/injection, schedule: Q01DX001 (ip), vehicle: saline) 0 of 6. In addition, where the note is “T/C endpoint: mean survival time, dose: 80.0 mg/kg/injection, schedule: Q01DX001 (ip), vehicle: saline”, the survivor count is listed as 0 of 6.

Regarding `CCCCCCC(C)NCC(O)COc1cccc(C)c1` (stereo not drawn), the survivor count reads like this: (T/C endpoint: mean survival time, dose: 50.0 mg/kg/injection, schedule: Q01DX009 (ip), vehicle: saline with Tween-80) 3 of 3; (T/C endpoint: mean survival time, dose: 100.0 mg/kg/injection, schedule: Q04DX002 (ip), vehicle: saline with Tween-80) 3 of 3; (T/C endpoint: mean survival time, dose: 200.0 mg/kg/injection, schedule: Q04DX002 (ip), vehicle: saline with Tween-80) 1 of 3; (T/C endpoint: mean survival time, dose: 400.0 mg/kg/injection, schedule: Q04DX002 (ip), vehicle: saline with Tween-80) 0 of 3.

Consider `O=C(Nc1ccc(Cl)cc1)OCC#CCOC(=O)Nc1ccc(Cl)cc1`, for which, under setting [5], the survivor count was 6 of 6.
